Data published in the supplement of paper PMC10849652.
The other results are listed elsewhere or left out.

Amino acid sequences for entries named in this document (tags omitted). A change or cut given only in a name is not applied to a line headed by its entry.
UniProt P61106, whole entry, looked up: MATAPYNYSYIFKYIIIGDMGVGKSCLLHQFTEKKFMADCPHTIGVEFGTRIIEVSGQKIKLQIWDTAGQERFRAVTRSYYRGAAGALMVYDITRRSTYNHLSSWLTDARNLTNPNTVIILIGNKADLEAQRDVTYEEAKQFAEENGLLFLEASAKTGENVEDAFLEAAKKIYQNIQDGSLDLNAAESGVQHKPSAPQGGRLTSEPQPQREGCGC
UniProt O43251: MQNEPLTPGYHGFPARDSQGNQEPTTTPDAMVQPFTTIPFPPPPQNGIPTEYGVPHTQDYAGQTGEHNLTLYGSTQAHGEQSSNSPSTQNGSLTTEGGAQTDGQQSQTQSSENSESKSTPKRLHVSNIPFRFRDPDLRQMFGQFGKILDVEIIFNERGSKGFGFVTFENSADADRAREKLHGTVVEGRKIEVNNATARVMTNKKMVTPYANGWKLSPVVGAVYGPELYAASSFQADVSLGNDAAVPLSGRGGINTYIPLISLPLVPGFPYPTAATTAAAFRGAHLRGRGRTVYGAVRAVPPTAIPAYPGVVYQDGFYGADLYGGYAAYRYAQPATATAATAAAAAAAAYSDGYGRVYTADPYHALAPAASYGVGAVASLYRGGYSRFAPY
UniProt P53611: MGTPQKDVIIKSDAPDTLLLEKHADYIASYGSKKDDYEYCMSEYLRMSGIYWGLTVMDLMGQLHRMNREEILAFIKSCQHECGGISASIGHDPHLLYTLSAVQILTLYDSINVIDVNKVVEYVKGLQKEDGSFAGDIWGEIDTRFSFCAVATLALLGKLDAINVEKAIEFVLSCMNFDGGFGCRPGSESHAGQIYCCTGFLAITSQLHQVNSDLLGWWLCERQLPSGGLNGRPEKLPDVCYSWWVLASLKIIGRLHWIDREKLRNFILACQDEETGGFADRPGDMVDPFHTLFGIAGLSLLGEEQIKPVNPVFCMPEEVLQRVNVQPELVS
UniProt Q15283: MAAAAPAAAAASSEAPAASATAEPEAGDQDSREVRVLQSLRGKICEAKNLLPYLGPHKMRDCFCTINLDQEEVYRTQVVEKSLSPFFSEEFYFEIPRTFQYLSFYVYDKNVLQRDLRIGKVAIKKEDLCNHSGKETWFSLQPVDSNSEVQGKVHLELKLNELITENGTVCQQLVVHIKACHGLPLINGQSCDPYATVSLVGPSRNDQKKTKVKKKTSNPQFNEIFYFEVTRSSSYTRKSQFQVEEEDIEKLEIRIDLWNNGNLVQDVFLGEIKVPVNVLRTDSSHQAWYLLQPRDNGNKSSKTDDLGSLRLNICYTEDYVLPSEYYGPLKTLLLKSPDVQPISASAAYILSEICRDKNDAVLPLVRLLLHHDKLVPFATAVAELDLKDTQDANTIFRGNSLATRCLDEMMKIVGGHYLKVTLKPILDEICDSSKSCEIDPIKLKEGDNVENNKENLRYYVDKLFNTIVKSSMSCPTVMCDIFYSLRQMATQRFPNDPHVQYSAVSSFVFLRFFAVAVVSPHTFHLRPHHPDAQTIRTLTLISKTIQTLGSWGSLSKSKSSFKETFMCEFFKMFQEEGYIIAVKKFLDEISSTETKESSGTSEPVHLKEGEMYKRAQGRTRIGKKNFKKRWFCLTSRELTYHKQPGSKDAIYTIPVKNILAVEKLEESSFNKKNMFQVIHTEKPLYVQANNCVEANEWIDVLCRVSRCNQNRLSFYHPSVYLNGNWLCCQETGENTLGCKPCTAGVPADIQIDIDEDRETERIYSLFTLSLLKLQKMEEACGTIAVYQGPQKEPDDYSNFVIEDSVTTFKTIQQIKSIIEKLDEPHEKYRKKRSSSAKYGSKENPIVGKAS
UniProt Q15291, whole entry, looked up: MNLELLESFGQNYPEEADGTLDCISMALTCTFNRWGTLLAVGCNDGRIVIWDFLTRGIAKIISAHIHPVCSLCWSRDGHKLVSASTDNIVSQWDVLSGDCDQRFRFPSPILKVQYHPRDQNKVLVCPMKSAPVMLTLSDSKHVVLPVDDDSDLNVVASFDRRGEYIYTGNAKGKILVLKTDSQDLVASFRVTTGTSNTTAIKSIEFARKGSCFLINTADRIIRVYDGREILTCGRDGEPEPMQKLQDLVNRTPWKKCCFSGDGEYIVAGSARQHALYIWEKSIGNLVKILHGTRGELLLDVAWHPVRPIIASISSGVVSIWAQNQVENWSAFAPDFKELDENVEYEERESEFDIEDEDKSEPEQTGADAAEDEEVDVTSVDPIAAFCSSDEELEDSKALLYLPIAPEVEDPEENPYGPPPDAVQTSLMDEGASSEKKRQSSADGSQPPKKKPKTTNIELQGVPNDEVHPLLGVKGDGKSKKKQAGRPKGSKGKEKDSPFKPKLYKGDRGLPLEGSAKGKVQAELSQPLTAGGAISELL
UniProt Q9NP72: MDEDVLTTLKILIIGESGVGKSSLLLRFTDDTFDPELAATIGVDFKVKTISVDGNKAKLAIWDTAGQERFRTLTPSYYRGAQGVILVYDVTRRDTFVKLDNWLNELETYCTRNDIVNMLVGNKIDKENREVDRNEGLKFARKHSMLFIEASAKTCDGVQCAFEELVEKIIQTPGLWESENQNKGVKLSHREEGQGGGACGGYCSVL
UniProt Q9ULC3: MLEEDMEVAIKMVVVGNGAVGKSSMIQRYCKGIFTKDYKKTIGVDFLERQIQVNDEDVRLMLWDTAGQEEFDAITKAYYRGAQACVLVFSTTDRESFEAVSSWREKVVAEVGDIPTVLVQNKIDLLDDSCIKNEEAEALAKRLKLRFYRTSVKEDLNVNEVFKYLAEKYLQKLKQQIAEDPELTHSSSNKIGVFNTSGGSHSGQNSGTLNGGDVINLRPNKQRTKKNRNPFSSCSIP
UniProt Q9UI14, whole entry, looked up: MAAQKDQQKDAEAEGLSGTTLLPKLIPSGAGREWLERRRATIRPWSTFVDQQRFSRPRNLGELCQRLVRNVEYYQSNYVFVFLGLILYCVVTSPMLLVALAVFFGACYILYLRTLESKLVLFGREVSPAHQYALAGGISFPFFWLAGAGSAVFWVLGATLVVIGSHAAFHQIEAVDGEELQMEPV
UniProt P54725: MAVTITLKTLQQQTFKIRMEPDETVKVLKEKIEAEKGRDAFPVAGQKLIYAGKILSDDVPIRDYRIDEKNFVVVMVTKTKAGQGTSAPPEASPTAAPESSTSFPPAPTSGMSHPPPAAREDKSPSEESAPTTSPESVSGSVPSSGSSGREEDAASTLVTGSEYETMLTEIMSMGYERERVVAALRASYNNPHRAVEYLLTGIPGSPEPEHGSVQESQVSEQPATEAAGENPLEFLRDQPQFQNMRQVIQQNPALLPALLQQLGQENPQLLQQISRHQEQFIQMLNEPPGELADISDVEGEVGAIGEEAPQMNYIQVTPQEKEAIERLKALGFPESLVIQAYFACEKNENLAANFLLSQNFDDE
UniProt Q15276: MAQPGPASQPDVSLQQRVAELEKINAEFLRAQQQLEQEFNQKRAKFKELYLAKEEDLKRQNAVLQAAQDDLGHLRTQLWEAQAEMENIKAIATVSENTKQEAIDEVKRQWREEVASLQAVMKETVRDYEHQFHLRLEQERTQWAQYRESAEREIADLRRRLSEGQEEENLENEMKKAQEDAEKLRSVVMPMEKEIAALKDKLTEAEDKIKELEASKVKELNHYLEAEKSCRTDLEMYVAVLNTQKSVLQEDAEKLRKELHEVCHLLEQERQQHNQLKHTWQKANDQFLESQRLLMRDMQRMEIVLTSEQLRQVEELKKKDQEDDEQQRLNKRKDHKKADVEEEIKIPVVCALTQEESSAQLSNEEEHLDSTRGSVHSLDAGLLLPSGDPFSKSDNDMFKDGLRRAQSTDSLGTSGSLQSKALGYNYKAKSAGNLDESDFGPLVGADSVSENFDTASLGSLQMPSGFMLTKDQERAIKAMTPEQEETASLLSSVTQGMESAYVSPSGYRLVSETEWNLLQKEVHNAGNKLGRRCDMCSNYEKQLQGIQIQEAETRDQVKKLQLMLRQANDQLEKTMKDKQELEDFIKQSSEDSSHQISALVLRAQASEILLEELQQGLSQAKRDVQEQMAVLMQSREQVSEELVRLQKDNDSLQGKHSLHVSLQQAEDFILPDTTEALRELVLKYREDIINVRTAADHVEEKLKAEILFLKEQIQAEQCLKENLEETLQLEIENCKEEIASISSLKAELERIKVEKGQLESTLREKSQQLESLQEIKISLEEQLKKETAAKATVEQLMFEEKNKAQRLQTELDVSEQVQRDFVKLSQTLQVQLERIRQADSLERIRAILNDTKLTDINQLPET
UniProt Q16576, whole entry, looked up: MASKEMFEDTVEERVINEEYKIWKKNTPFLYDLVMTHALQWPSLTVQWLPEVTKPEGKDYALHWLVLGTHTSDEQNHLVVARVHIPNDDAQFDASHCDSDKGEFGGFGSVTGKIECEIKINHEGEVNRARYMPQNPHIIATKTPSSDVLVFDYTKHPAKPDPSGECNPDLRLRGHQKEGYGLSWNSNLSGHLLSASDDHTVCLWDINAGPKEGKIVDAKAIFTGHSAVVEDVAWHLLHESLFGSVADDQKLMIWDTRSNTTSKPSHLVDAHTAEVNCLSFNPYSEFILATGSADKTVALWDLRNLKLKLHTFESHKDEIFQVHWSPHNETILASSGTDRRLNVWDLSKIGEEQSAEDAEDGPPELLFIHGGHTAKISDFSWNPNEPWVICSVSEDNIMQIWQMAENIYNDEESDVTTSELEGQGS
UniProt Q9H477: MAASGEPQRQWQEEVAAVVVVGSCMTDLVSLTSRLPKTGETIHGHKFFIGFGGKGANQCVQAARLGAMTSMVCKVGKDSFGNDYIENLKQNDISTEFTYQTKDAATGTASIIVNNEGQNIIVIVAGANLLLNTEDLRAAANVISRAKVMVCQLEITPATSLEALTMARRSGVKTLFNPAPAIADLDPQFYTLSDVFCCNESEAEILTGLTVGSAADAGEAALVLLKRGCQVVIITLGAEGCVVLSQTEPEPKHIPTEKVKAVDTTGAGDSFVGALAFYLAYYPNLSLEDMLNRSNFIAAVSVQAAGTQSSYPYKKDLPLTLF

Compound: c1cn2cc(-c3ccc4cn[nH]c4c3)nc(Nc3ccc(N4CCOCC4)cc3)c2n1 [entospletinib]
Assay: log2 fold change, soluble protein after heating vs DMSO (PISA); higher = thermal stabilisation; K562 cells, 10 uM, 30 min; active = over 0.2 and 3.5 SD of the protein, either way, in both replicates (recomputed)
Summary of the method: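 Aliquots of K562 cells (2×10^6 cells/mL) treated with 10 μM compound for 30 min were heated for 3 min over 48°C-58°C. After pooling and extraction in PBS with 0.5% NP-40 at 4°C, soluble protein from a 21,000xg, 90 min spin was quantified by TMTpro 16plex LC-MS/MS with channel sums equalised. Thermal stability is expressed against control samples, from duplicates, as a log2 fold change.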

log2 fold change, inactive:
RAB14 (UniProt P61106) -0.01, RBFOX2 isoform 8 (UniProt O43251) 0.088, RABGGTB (UniProt P53611) 0.009, RASA2 (UniProt Q15283) 0.173, RBBP5 isoform 2 (UniProt Q15291) -0.044, RAB18 (UniProt Q9NP72) -0.02, RAB23 (UniProt Q9ULC3) -0.06, RABAC1 (UniProt Q9UI14) -0.014, RAD23A (UniProt P54725) 0.002, RABEP1 (UniProt Q15276) -0.038, RBBP7 isoform 2 (UniProt Q16576) -0.015, RBKS (UniProt Q9H477) -0.048
